Assay results as given in patent US6566080 (NEW ENGLAND MEDICAL CENTER HOSPITALS, dated 2003).
These are yes or no findings as the source states them, for the method shown. Some entries that bind do so weakly or less than the wild type.

Chains of the proteins cited; added tags and fusions are not shown. Lines headed by an entry give the natural chain unless they say otherwise; changes in a name come on top.
UniProt P01350: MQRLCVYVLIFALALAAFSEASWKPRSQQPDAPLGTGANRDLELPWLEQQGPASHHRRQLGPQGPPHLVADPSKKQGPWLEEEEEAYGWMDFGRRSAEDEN

Target: T1, wild-type human CCK-B/gastrin receptor (human, UniProt P32239 1-447)
T1 sequence: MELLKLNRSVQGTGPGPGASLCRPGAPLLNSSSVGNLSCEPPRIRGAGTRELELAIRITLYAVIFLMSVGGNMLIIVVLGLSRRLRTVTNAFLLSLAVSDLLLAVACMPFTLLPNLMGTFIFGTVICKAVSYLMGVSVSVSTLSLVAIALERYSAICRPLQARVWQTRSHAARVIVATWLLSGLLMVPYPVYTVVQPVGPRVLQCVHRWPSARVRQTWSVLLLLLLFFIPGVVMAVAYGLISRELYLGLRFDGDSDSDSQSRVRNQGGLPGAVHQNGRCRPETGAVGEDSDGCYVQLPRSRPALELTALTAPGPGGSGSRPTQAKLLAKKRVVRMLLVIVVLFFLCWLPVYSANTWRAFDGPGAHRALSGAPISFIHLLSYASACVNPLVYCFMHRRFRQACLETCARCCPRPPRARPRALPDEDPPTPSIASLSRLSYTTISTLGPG
Assay: ^125I-CCK-8 competition binding on stably transfected CHO cells

Binder: QGPWLEEEEEAYGWMDF (peptide, UniProt P01350 76-92, looked up) [Gastrin I (unsulphated gastrin-17)]
- binding: binds
